The values that follow come from paper PMC6737378, “Molecular Basis for ATP-Hydrolysis-Driven DNA Translocation by the CMG Helicase of the Eukaryotic Replisome” (Cell Reports, 2019).

The chains behind the UniProt entries cited, without tags or fusion partners. Where a name states a change or a piece, a line headed by the entry shows the natural chain unless it says otherwise.
UniProt P49735: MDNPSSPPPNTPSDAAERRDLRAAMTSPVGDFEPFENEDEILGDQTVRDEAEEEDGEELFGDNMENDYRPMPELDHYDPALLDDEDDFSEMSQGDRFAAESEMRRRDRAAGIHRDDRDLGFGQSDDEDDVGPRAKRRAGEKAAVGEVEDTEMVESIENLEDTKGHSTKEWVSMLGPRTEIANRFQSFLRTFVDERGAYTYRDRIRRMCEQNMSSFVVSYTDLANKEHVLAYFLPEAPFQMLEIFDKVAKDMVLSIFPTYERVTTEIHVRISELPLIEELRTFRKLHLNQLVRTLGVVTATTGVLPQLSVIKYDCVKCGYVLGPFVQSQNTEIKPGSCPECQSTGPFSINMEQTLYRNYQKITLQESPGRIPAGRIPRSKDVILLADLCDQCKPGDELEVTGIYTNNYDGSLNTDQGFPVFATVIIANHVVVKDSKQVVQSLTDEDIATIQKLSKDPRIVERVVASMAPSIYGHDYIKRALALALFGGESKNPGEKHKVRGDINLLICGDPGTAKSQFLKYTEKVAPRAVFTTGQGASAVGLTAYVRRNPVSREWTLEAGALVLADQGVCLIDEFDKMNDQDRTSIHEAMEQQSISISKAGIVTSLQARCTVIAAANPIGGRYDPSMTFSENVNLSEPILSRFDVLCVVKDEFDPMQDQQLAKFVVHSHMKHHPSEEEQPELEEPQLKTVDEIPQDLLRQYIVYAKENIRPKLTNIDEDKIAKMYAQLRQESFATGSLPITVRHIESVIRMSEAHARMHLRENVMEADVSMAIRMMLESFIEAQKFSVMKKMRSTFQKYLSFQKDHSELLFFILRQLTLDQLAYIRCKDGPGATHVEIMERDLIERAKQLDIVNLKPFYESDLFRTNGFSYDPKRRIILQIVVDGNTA
UniProt Q9XYU1: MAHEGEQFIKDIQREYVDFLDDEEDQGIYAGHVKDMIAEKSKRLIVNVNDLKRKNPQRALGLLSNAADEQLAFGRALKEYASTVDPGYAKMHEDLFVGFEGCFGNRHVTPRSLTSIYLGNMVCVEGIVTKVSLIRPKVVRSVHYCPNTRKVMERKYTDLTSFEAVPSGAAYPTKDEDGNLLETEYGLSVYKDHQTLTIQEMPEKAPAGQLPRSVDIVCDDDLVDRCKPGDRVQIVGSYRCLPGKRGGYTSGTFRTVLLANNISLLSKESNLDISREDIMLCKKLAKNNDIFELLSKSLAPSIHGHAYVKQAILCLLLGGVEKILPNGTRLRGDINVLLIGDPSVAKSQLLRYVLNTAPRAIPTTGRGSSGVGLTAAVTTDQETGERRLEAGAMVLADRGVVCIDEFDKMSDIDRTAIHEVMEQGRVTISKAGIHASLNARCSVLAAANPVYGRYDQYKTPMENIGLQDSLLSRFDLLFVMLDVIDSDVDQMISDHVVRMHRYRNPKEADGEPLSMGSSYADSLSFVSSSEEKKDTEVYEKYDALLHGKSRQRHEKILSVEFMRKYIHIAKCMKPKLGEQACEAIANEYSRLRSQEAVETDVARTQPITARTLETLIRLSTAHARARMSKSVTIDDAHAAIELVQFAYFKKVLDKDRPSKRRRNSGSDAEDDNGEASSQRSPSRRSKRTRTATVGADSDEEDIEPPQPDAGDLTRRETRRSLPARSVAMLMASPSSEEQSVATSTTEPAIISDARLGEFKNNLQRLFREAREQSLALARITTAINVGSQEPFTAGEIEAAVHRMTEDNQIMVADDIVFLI
UniProt Q26454: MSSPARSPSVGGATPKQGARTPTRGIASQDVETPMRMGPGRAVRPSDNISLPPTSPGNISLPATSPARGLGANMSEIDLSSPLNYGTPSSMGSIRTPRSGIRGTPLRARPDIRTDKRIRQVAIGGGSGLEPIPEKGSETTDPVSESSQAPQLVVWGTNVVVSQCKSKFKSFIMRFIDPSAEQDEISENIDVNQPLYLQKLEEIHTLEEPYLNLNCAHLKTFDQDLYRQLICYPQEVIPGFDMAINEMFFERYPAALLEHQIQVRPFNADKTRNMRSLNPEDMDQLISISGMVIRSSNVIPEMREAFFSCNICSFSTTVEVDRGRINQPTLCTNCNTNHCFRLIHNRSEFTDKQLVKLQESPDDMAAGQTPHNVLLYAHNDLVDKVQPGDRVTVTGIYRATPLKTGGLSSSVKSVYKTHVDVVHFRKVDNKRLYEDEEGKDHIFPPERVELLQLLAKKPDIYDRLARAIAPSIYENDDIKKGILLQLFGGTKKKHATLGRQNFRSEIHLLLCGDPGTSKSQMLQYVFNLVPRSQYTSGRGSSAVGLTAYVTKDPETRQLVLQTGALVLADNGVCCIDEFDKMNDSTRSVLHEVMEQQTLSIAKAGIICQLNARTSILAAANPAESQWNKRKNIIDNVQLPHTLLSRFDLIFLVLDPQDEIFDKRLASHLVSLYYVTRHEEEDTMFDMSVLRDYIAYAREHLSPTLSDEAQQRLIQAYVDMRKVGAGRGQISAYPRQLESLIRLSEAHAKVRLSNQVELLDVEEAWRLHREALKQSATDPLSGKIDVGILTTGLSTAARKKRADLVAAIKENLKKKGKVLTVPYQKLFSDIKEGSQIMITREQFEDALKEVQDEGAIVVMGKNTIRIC
UniProt Q9VGW6: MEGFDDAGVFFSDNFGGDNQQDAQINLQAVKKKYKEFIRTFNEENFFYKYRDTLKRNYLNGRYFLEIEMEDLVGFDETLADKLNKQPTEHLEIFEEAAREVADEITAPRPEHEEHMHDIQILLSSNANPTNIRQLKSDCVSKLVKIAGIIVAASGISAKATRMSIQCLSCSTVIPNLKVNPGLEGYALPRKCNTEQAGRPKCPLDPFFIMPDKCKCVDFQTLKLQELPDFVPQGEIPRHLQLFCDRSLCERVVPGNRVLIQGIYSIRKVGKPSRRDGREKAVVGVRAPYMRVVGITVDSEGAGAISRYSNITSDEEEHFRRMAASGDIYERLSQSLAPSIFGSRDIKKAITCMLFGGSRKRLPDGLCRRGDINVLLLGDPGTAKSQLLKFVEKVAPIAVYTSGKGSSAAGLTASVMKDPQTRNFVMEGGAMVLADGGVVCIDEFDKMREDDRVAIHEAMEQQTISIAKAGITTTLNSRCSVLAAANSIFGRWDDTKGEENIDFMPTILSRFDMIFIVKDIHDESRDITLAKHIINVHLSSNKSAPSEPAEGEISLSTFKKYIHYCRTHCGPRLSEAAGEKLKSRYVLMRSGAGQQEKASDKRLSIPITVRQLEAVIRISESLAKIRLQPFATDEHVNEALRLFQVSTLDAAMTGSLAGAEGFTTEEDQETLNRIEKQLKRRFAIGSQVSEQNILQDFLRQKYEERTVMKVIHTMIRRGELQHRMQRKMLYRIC
UniProt Q9V461: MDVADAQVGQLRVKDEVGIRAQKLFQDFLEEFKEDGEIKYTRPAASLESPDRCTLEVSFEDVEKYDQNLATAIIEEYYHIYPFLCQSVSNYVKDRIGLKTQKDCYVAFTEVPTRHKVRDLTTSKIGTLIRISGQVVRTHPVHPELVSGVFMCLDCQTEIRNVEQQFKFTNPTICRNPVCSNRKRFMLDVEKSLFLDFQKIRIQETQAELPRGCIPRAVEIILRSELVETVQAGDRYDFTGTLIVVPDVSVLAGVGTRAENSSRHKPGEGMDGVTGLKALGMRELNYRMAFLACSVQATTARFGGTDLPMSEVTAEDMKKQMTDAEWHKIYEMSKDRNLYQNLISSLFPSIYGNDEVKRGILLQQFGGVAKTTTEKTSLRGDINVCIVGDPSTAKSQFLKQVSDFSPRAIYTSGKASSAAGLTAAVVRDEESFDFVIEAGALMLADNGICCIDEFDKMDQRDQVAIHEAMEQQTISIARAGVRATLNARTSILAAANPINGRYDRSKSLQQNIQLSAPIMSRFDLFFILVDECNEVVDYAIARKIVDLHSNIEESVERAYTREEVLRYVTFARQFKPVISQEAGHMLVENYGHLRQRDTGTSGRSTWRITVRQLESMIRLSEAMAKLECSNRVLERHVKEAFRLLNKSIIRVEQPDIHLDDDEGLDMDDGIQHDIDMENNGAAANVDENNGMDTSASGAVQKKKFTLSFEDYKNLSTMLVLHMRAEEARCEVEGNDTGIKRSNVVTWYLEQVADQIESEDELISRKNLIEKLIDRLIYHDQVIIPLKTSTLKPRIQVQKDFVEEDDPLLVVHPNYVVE
UniProt Q9XYU0: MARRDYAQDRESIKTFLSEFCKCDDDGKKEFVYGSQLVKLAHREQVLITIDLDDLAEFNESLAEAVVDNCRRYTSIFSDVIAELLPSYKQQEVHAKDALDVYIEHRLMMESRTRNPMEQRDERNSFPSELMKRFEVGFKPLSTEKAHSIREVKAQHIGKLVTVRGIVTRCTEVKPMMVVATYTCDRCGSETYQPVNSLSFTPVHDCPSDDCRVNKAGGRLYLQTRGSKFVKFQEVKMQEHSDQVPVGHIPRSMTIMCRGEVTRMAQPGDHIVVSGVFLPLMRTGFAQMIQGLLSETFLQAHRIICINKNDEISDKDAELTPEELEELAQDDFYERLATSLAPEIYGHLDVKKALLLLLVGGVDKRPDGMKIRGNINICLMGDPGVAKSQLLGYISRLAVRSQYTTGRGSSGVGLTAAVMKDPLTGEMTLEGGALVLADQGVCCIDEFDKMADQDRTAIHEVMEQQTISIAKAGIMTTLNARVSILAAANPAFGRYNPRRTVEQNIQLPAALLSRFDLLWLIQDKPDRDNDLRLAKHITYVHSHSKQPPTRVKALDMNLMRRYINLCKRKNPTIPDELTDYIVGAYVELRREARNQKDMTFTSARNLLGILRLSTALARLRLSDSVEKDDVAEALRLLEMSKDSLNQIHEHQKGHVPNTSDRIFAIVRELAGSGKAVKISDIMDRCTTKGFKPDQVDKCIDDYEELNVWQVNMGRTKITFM

No constants are given. Whether binding was seen depends on the method and setting. Some binding calls cover weakened binding; strength is not graded here. For some assays here: Where a sequence is shown, tags or fusion partners need not be part of it.

In assay [1] the target is Drosophila melanogaster MCM complex (Mcm2-3-4-5-6-7 hetero-hexamer) (Drosophila melanogaster) (UniProt P49735+Q9XYU1+Q26454+Q9VGW6+Q9V461+Q9XYU0). The assay is described as follows: cryo-EM structure; Drosophila CMG fork-affinity purified on a DNA fork with two leading-strand M.HpaII roadblocks, eluted with 5 mM ATP; four states (1A, 1B, 2A, 2B), 3.70-4.46 Å; both purified.

For assay [2], the target named is T1, Saccharomyces cerevisiae Csm3 (CBP-tagged) (S. cerevisiae) (UniProt Q04659).
T1 sequence: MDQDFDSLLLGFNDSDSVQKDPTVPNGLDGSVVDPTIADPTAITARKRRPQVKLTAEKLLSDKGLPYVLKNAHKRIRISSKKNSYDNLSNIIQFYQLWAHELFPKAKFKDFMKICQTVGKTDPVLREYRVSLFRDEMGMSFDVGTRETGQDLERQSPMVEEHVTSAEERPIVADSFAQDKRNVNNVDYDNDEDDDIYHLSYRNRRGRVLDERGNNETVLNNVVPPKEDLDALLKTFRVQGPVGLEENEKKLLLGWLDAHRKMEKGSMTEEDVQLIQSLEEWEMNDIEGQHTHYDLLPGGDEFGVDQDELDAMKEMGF
The assay is described as follows: co-purification (calmodulin affinity resin, gel filtration); Csm3 and Tof1 co-expressed in yeast; lysate on Calmodulin Affinity Resin with 2 mM CaCl2, eluted with EDTA/EGTA, then Superdex 200. For orientation: Size exclusion chromatography separates by hydrodynamic size, large species first.

B1: Drosophila melanogaster Cdc45 (protein, UniProt O96989 1-575)
chain: MFVQDLRNDFYRQLVGKRILIVVNYDIDAICASRILQALFKYDHMLYTVVPIMGVTGLKRAYGEHQGDVKYVVLVNCGGCVDIVELLQPSDDVTFFICDSHRPLDVCNIYSDRQVCILGDASLEENIPAFETIFYDSEGEDEDEDESSDTEQQHDDSGAGESDQEDQAPRSRKLSRLERHEQRILKQRARRQWESERDRIMFEYTQFSYYGRSAALMVFELAWKLSKDNMDLLWWAIVGITEQLLLGKIESGAYTLELEQIQSHVSRLTNKTNDQNTMSASKITFENDLHLVLYRHWPVTESMRYSRYSSCQLKLWTLRGEKRLHELLLEMGLPLVHARQTYGAMDLVLRKEFFSMVERLAEKYDIADIVYGTFTLSYGYRSRYAAADYVYALLAIMESVKKHKTPEDCFLEASDALSRQHKQLLSAGIDQAKLLHAAVFRQVQSSLEARQVHSAGSFFYYVLQEEHAFFSYPYALGLLARFLLRGHVATSRARQASDLPLIASCPLNASEGMCLLVGIVPVREDSPRNFFGKAFEQAAQKSGVALLQDFFEPAVVQLRQSDLTRFLDSLTVLLA
With B1, the binding entry in assay [1] is “binds”.

B2: Saccharomyces cerevisiae Tof1 (protein, UniProt P53840 1-1238)
chain: MSADLQQGTTNAADFSLTVLRARIALLATAIGGPDYTSQIDPPPYKLGDDCLACLKDLKRWFKLVDDQQKRWDVAMAVAEYRILTDDLLPILIDWENKCSLAAKLAKNNPDHEEFRNKAYYDKIALNCLQLLVLMTWPLIVTEQSSSNQITLYGELKKHQLVYKKTILSMESGKVLRAAIRLALDVIKIDRLSRTPRDNMVLKLVLNFFRNVIAIEPGEFTINTKKSMPKKGITSIDTLPPNVSMDDISLNTVISSFHKNKVFGFLLTLTSSLSKEFDQDFINIPLLEIMFYFTKDVNQELLFPRQFETGTHSKVVNKNESSSANNIVTSAGFELSKLLQKEHQMRKNVIKHTSARHSRFGGLLSIQTPDKTRLTVSGSQALVDEKIALQKLDDSKKWNKRIIKKHQSVAAEGLPNSLLNSQTGKAIFFTESNGKHFKEFINNFIDSGFNILLHSVTNYFTTEQDRMVTLEQVEYLLFFAWFVKYQLLRSKIDNSADIKQVSEALKEVTFILVSSLLRSAYDLKNWTVTHAGMIAFNELLNLVSRTKAAQEEDSTDIEFIVSRLFSDERIQLLSNLPKIGSKYSLQFMKSCIELTHSVLKVLEQYSDDKTLVIEGKSRRQKKFNISEGDITKLIEEENVDRDEALDILTSSLRSIEVNFQKVQANYMTEPVIETYINFLERFRELEDDSIKKVFSFFHRVFVQAKEQALLFRFDLIILLREMLSPDGLDRMSRSRKYVSQFSDYFLARLKKRLKKSPAWFVGLLFPPLHNSEVGFYQRYGEYNVLNNESMYAAPASQFKPIPDEEALPPSILLDMKYGVLVSTLLDDGKTELLDQLLKHITHTLDIFKSWLTVNVNAGKETVNPPNEYFTLTGVLNNDPIFKDKDYRALLLLIGYSIPRKINEPCFLPGTVEVSDLTVSCELVKKYLSTPFETPNGLPSSSYLLRVRSEKDSFSHNEQDGWEGDDDYDYNDPYIVPDDQILSKSDAAYFKDLDNNASDKLKGTKFSKGIARSKKKDKRKRRKGEAKTNLPMFGDQDDERPQTVRERHGVFSKEFISDSEDDEDLMNPIFFENETYMRWLLDKNNGQLTEDRYIQFAKFAAERMNNGGVVTGDYTSLFGGSIPSIESIRATESSSFAPDKSLISLASHVASEMSIFDVNNNNNNQLSDDDVNSESRNSLGSSQPSNSQNMFQSEVYSRKESTKRSLEASAADESDEDEEAIRLFGKKSRVVLSQGDSDD
Regarding B2, the binding entry in assay [2] was “binds”.
